Data published in patent US12728170B2 (MC SAF, priority 2020, dated 2026).

Legend:
[1] = Denaturing HRMS analysis according to method 2 (MAR per species); assay type: physicochemical
[2] = general procedure: solution-phase peptide synthesis; HATU / 2,6-lutidine; EEDQ / DIPEA; details: TFA salt; for conjugation yield: conjugation step; for step yield: late stage modification step

## Example 34: Panitumumab—Compound (36) Conjugate; bioconjugation reaction 1, reducing agent 1 (10.6 eq), compound (36) 18.0 eq
[1]; LH species
  Average MAR, LH: 1.00
[1]; LH species, MAR 1
  Intensity (%) LH, MAR 1: 100%
[1]; LHHL species
  Average MAR, LHHL: 0.98
[1]; LHHL species, MAR 0
  Intensity (%) LHHL, MAR 0: 2%
[1]; LHHL species, MAR 1
  Intensity (%) LHHL, MAR 1: 98%

## MMAE 3-(2,6-bis(bromomethyl)isonicotinamido)-2-((2,6bis(bromomethyl)isonicotinamido)methyl)propamido-N-hexanamide-valine-citrulline-p-aminobenzoyl carbamate
[2]
  conjugation yield: 63%

## MMAE 4-methyleteatrazinylphenoxy-3,6,9,12-tetraoxapentadecan-15-amide-valine-citrulline-p-aminobenzoyl carbamate
[2]
  conjugation yield: 56%

## MMAE 6-aminohexanamide-valine-citrulline-p-aminobenzoyl carbamate, salt of TFA
[2]
  step yield: 76%

## MMAE 6-azidohexanamido-N-hexanamide-valine-citrulline-p-aminobenzoyl carbamate
[2]
  step yield: 75%

## MMAE amine 3-[2-(2-aminoethoxy)ethoxy]-propanamido-valine-citrulline-p-aminobenzoyl carbamate, TFA salt
[2]
  conjugation yield: 45%
